These are yes or no findings as the source states them, for the method shown. Binding seen in cells or lysates may run through a third protein. Binding can be weak; no strength is given. Where a sequence is shown, tags or fusion partners need not be part of it.
B1: MYC-tagged CBP20 (protein, UniProt Q9XFD1 1-257)
chain: MASLFKEQAKLSAYRDRRFSGTQEEFDEALRASTTVYIGNVSFYTTEEQLYELFSRAGEIKKIIMGLDKNTKTPCGFCFVLFYSREDTEDAVKYISGTILDDRPIRVDFDWGFQEGRQWGRGRSGGQVRDEYRTDYDPARGGYGKLVQKELEAQRQLVDYGTGSLGAYPQAAPTNYGNGRRGGGNYGQGGQNRHGRGDYHRKRQRDDDRYGRDNSRRNTDHESRRDTDSDMRPEKNPRFRESGDSDDDGEDDRKRRS
B2: HA-CPSF73-I (protein, UniProt Q9C952 1-693)
chain: MASSSTSLKRREQPISRDGDQLIVTPLGAGSEVGRSCVYMSFRGKNILFDCGIHPAYSGMAALPYFDEIDPSSIDVLLITHFHIDHAASLPYFLEKTTFNGRVFMTHATKAIYKLLLTDYVKVSKVSVEDMLFDEQDINKSMDKIEVIDFHQTVEVNGIKFWCYTAGHVLGAAMFMVDIAGVRILYTGDYSREEDRHLRAAELPQFSPDICIIESTSGVQLHQSRHIREKRFTDVIHSTVAQGGRVLIPAFALGRAQELLLILDEYWANHPDLHNIPIYYASPLAKKCMAVYQTYILSMNDRIRNQFANSNPFVFKHISPLNSIDDFNDVGPSVVMATPGGLQSGLSRQLFDSWCSDKKNACIIPGYMVEGTLAKTIINEPKEVTLMNGLTAPLNMQVHYISFSAHADYAQTSTFLKELMPPNIILVHGEANEMMRLKQKLLTEFPDGNTKIMTPKNCESVEMYFNSEKLAKTIGRLAEKTPDVGDTVSGILVKKGFTYQIMAPDELHVFSQLSTATVTQRITIPFVGAFGVIKHRLEKIFESVEFSTDEESGLPALKVHERVTVKQESEKHISLQWSSDPISDMVSDSIVALILNISREVPKIVMEEEDAVKSEEENGKKVEKVIYALLVSLFGDVKLGENGKLVIRVDGNVAQLDKESGEVESEHSGLKERVRVAFERIQSAVKPIPLSAS
B3: HA-FY (protein, UniProt Q6NLV4 1-647)
chain: MYAGGDMHRGSQMPQPPMMRQSSASSTNINPDYHHPSGPFDPNVDSFGAKRMRKHTQRRAVDYTSTVVRYIQARTWQRDSRDRTTLQPTPAAAVDMLPTVAYSDNPSTSFAAKFVHASLNKNRCSINRVLWTPSGRRLITGSQSGEFTLWNGQSFNFEMILQAHDQPIRSMVWSHNENYMVSGDDGGTLKYWQNNMNNVKANKTAHKESIRDLSFCKTDLKFCSCSDDTTVKVWDFTKCVDESSLTGHGWDVKSVDWHPTKSLLVSGGKDQLVKLWDTRSGRELCSLHGHKNIVLSVKWNQNGNWLLTASKDQIIKLYDIRTMKELQSFRGHTKDVTSLAWHPCHEEYFVSGSSDGSICHWIVGHENPQIEIPNAHDNSVWDLAWHPIGYLLCSGSNDHTTKFWCRNRPADNPRDVLMQNQGYNEQGFGRQPDNFQPSEASPIPGAFVPGLTRNEGTIPGIGIAMPFDASSQGDHKQPLPGSMALGAPPLPPGPHPSLLGSGQQQGYQQQQQHQGHPQQMLPMPNMPHHQLPPSSHMPLHPHHLPRPMQMPPHGHMPPPSMPMSHQMPGSMGMQGGMNPQMSQSHFMGAPSGVFQGQPNSGGPQMYPQGRGGFNRPQMIPGYNNPFQQQQQPPLPPGPPPNNNQQHQ

By UniProt entry, the sequences of proteins in these tests, tags left out. Where a name states a change or a piece, a line headed by the entry shows the natural chain unless it says otherwise.
UniProt Q56XE4: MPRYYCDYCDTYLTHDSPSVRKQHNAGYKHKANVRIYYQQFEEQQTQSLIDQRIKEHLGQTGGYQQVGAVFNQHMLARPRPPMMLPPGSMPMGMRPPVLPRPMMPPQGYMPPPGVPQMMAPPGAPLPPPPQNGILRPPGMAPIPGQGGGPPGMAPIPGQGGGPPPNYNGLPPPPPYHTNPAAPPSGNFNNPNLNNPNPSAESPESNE

Key:
[1] = molecular target: T1, GFP-U1-A (Arabidopsis thaliana) (UniProt Q39244); assay: co-IP; proteins transiently co-expressed in N. benthamiana; immunoprecipitation with a GFP-affinity matrix; blots with GFP- and MYC-specific antibodies
T1 sequence: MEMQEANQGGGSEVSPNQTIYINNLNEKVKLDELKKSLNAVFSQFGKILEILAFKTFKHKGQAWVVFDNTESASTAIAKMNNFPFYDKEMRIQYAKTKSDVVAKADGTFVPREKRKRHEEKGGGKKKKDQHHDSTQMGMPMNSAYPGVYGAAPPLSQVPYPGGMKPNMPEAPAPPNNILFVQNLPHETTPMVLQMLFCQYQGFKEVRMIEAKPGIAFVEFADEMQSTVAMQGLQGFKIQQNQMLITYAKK

[2] = molecular target: GFP-U1-C (Arabidopsis thaliana) (UniProt Q56XE4); assay: as above
[3] = molecular target: RFP-U1-C (Arabidopsis thaliana) (UniProt Q56XE4); assay: co-IP; as a1, with RNase A at a final concentration of 10 µg ml^-1 added to the IP samples
[4] = molecular target: RFP-U1-C (Arabidopsis thaliana) (UniProt Q56XE4); assay: co-IP; proteins transiently co-expressed in N. benthamiana; RFP-trap beads (Chromotek), 1 h at 4 °C; lysis buffer 50 mM Tris-HCl pH 7.5, 150 mM NaCl, 10% glycerol, 0.5% Triton X-100, 0.5% Nonidet P 40 Substitute; blots with RFP-, HA- and G/YFP-specific antibodies

Molecule | binding [1] | binding [2] | binding [3] | binding [4]
MYC-CFI68 (Arabidopsis thaliana) | binds |  |  | 
B1 |  | binds |  | 
B2 |  |  | binds | binds
B3 |  |  | binds | binds

From paper PMC11489095
